# Experimental data published in the supplement of paper PMC10735217.
# This is one part of the list. Repeats in this data set agree poorly, so a single value says little.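 Human kidney-derived cells stably carry a construct in which eight TEAD-binding elements drive luciferase, measured by luminescence in a drug-repurposing library screen. A hit is any compound whose signal exceeds the plate mean by more than five robust Z scores.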
# Test system: HEK293A TEAD-LUC reporter
# Assay: TEAD-luciferase reporter activity (YAP activation), robust Z score vs plate; higher = stronger YAP/TEAD activation
# Conditions: 24 h
Compound,TEAD-luciferase reporter activity (compound concentration: 200 nM),TEAD-luciferase reporter activity (compound concentration: 2 uM),TEAD-luciferase reporter activity (compound concentration: 10 uM)
CC(C)(O)c1ccn2c(-c3ccc(F)c(-c4c(F)cccc4C#N)c3)cnc2n1 [GABAalpha2/alpha3 agonists],inactive: -1.06,inactive: 1.96,inactive: -0.481
O=C(/C(=C/c1ccc(Cl)cc1Cl)n1ccnc1)c1ccc(Cl)cc1,inactive: -1.19,inactive: -1.68,inactive: 0.551
CC(=O)NC(CCC(N)=O)C(=O)O (stereo not drawn),inactive: 1.16,inactive: -0.9,inactive: 0.808
C#C[C@]1(O)CC[C@H]2[C@@H]3[C@H](C)CC4=C(CCC(=C)C4)[C@H]3CC[C@@]21C,inactive: -0.671,inactive: 0.0734,inactive: -1.89
O=C1c2cc(CCCCO)ccc2OCc2ccsc21,inactive: -1.64,inactive: 1.4,inactive: 1.88
CCN(CC(=O)N[C@@H](CC(=O)O)C(=O)N[C@H](CC1CCCCC1)C(N)=O)C(=O)CCCC1CCNCC1 [Alnidofibatide],inactive: -1.16,inactive: -0.621,inactive: 0.46
COc1c(N2CC(C)C(N)C2)c(F)cc2c(=O)c(C(=O)O)cn(C3CC3)c12 (stereo not drawn),inactive: -0.946,inactive: -1.31,inactive: 0.311
O=Cc1ccccc1O[C@@H]1O[C@H](CO)[C@@H](O)[C@H](O)[C@H]1O,inactive: 0.78,inactive: 1.99,inactive: -0.0121
O=C(C1CCCCC1)N1CC(=O)N2CCCc3ccccc3C2C1 (stereo not drawn) [Epsiprantel],inactive: -0.42,inactive: 0.916,inactive: -0.917
C/C=C1\CC[C@H]2[C@@H]3[C@@H](O)[C@H](O)[C@H]4C[C@@H](O)CC[C@]4(C)[C@H]3CC[C@]12C,inactive: 0.774,inactive: 1.32,active: 7.38
COc1ccc(C[C@H]2c3cc(OC)c(OC)cc3CCN2[C@@H](C(=O)NC(C)C)c2ccccc2)cc1OC,inactive: -0.862,inactive: -0.741,inactive: 0.734
CCN(CC)C(COC(=O)c1ccc(N)cc1)CC(C)C (stereo not drawn),inactive: -1.22,inactive: -0.385,inactive: 0.0668
C[C@@H]1CCC[C@H](C)N1[n+]1cc([NH-])on1,inactive: -0.411,inactive: -2.25,inactive: 1.47
c1ccc(SCCCNCCC(c2ccccc2)c2ccccc2)cc1 [tiopropamine],inactive: -0.43,inactive: -0.747,inactive: 3.27
CN1CCN(C2=Nc3cc(F)ccc3Cc3ccccc32)CC1,inactive: -1.76,–,inactive: -0.382
CN1CCN(C2=Nc3cc(F)ccc3Cc3ccccc32)CC1 [fluperlapine],–,inactive: 0.816,–
C[C@@H]1C[C@@](N)(C(=O)O)[C@H]2C1[C@@H]2C(=O)O (stereo partly drawn),inactive: -1.44,inactive: 0.736,inactive: 0.726
CN(C)CCCC1(CCCN(C)C)c2ccccc2Nc2ccc(Cl)cc21,inactive: -1.13,inactive: 2.89,inactive: -0.641
COc1ccc(CNCC(O)COc2ccc3[nH]c(=O)ccc3c2)cc1OC (stereo not drawn),inactive: -1.47,inactive: 0.0728,inactive: 3.33
CCCOc1ccc2c(c1)CC[C@@H]1[C@@H]2CC[C@]2(C)[C@@H](OC)CC[C@@H]12 [promestriene],inactive: -0.251,inactive: -0.415,inactive: -1.02
CCCCNC(=O)Nc1c(C)cccc1OCCCn1cnc(-c2ccccc2)c1CC,inactive: 1.94,inactive: 0.24,active: 5.06
CC[C@H](C)[C@H](NC(=O)[C@H](Cc1ccc(O)cc1)NC(=O)[C@@H](NC(=O)[C@H](CCCNC(=N)N)NC(=O)[C@@H](N)CC(=O)O)C(C)C)C(=O)N[C@@H](Cc1c[nH]cn1)C(=O)N1CCC[C@H]1C(=O)O [Angiotensin (1-7)],inactive: -0.762,–,inactive: -0.169
COc1cccc(OC)c1-c1ccc(C[C@H](NC(=O)c2c(Cl)cccc2Cl)C(=O)O)cc1,inactive: -0.199,inactive: -1.05,inactive: -0.117
Cn1c(-c2ccccc2C(F)(F)F)nnc1C12CCC(c3noc(C4CC(F)(F)C4)n3)(CC1)CC2,inactive: -0.448,inactive: 1.47,inactive: 1.08
CC1(C)CC[C@]2(NC(=O)C(C)(F)F)CC[C@]3(C)[C@H](C(=O)C=C4[C@@]5(C)C=C(C#N)C(=O)C(C)(C)[C@@H]5CC[C@]43C)[C@@H]2C1,active: 6.07,inactive: -0.518,inactive: 1.49
CCCC(=O)N1Cc2ccccc2CC2(CCCN2CCC)C1 (stereo not drawn),inactive: -0.377,–,inactive: 1.38

# Record cards, from the list above. Order of values: TEAD-luciferase reporter activity (compound concentration: 200 nM) | TEAD-luciferase reporter activity (compound concentration: 2 uM) | TEAD-luciferase reporter activity (compound concentration: 10 uM)
# CN1CCN(C2=Nc3cc(F)ccc3Cc3ccccc32)CC1 as listed: inactive: -1.76 | – | inactive: -0.382
# O=C1c2cc(CCCCO)ccc2OCc2ccsc21 as listed: inactive: -1.64 | inactive: 1.4 | inactive: 1.88
